Among the test systems are ICEBERG (human); IDH3B (human); IFI35 (human); IFIH1 (human); IFIT3 (human); IFNA5 (human); IFNA8 (human); IFNW1 (human); IGHM (human); IGJ (human).
Experiment in all cases: protein microarray (ProtoArray v5.0), streptavidin-Alexa Fluor 647
Holding throughout (settings): 3'-biotin; 20 mM Tris (pH 7.5), 5 mM MgCl2, 100 mM KCl, 0.1% Tween-20, A/T-rich and random oligonucleotide blockers; temperature not stated; high values mean tight binding

The subject of experiment [1] is High affinity cAMP-specific and IBMX-insensitive 3prime,5prime-cyclic phosphodiesterase 8A (human).
Experiment [2] concerns Histone H2B type 1-D (human).
The test system of experiment [3] is Histone H2B type 1-O (human).
The test system of experiment [4] is Histone deacetylase 10 (human).
Experiment [5] has as its system Homeobox protein BarH-like 1 (human).
Experiment [6] has as its system Homeobox protein Hox-B6 (human).
Experiment [7] relates to Homeobox protein Meis1 (human).
The test system of experiment [8] is Hsp90 co-chaperone Cdc37-like 1 (human).
The test system of experiment [9] is Huntingtin-interacting protein M (human).
Another experiment concerns the target T1, IFNA1 (UniProt P0DY56).
T1 sequence: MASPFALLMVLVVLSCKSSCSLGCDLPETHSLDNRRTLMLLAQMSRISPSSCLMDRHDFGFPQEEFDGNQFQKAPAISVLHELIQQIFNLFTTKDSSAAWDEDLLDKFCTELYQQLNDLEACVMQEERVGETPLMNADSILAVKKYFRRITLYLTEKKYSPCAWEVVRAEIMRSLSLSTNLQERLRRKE

This is one part of the list. For some assays here: Construct or isoform of the protein are uncertain.

Regarding “GGGGACAGGGGTATGGGGAGGGG [G4-3 biotinylated (CtG)]”, the binding signal is -0.33 z-score in experiment [1]; 4.46 z-score in [2]; 3.22 z-score in experiment [3]; -0.33 z-score in experiment [4]; 3.21 z-score in experiment [5]; -0.335 z-score in [6]. The binding signal was -0.333 z-score in [7]; -0.34 z-score in [8]; -0.331 z-score in [9]; -0.314 z-score with ICEBERG (human); -0.317 z-score in the experiment on IDH3B (human); -0.313 z-score in the experiment with IFI35 (human). In addition, the binding signal with IFIH1 (human) is -0.341 z-score; in the experiment on IFIT3 (human) it was -0.342 z-score; with IFNA1 it was -0.325 z-score; with IFNA5 (human) it was -0.331 z-score; in the experiment with IFNA8 (human) it was -0.322 z-score; in the experiment with IFNW1 (human), -0.324 z-score. The binding signal in the experiment with IGHM (human) is -0.327 z-score; in the experiment with IGJ (human), -0.296 z-score.

The record behind these values is publication PMC5996148.
